Experimental data taken from PubChem BioAssay AID540256 (National Center for Advancing Translational Sciences (NCATS), 2011).
About 3,700 (1.2%) of roughly 300,000 compounds were called active. The inconclusive results got no clear call from the source; some entries with a clear call stand among them for comparison. Calls come from the whole dose curve; tested in HEK293 cells. Potencies of inconclusive entries are doubtful fits and often do not repeat.

Assay: qHTS for Inhibitors of binding or entry into cells for Lassa Virus; note: nearly all actives have a fitted effect of over 50% in size
Details: Lassa virus pseudotype entry inhibition, cell reporter; series mostly up to 37.9 µM
Potency is the fitted concentration of half-maximal effect.

| Structure (SMILES) | Potency |
| --- | --- |
| COc1ccccc1CNC(=O)CCC1N=C2c3ccccc3N=C(SCc3cccc(Cl)c3)N2C1=O (stereo unspecified) | inconclusive: 3.55 µM [inhibitor, single point] |
| CCOC(=O)c1ccc(NC(=O)CSc2nnc(-c3cccs3)n2CC)cc1 | inactive |
| COC(=O)c1ccc(COc2ccc(CNCc3ccc(Cl)cc3)cc2)cc1 | inactive |
| CCOc1ccc2[nH]c(=O)c(CN(Cc3ccco3)C(CC)c3nnnn3Cc3ccccc3)cc2c1 (stereo unspecified) | inconclusive: 17.8 µM [inhibitor, single point] |
| COc1ccccc1CNC(=O)CCCc1nnc2n(CC(C)C)c(=O)c3sccc3n12 | inactive |
| COc1ccc(C(c2nnnn2C2CCCCC2)N2CCN(c3ccccc3F)CC2)cc1 (stereo unspecified) | inconclusive: 10 µM [inhibitor, partial curve, poor fit] |
| O=C(N/N=C/c1ccc(O)cc1)c1cncc(Br)c1 | inactive |
| COc1ccc(C(=O)N/N=C/c2sc3ccccc3c2O)cc1 | inconclusive: 23.1 µM [inhibitor, single point] |
| S=C(N/N=C/c1ccc(Cl)c(Cl)c1)Nc1ccccc1Cl | inconclusive: 17.8 µM [inhibitor, single point] |
| COc1ccc(NS(=O)(=O)c2ccc(OC)c(N(C)S(=O)(=O)c3ccc(Cl)cc3)c2)cc1 | inconclusive: 29.1 µM [inhibitor, single point] |
| O=C(NCc1cccs1)c1ccc(Br)o1 | inconclusive: 29.1 µM [inhibitor, single point] |
| Cc1cc(C)c(C#N)c(SCCS(=O)(=O)Cc2ccccc2)n1 | inactive |
| O=C1CC(c2ccccc2)CC(O)=C1C=Nc1ccc(O)cc1 (stereo unspecified) | inconclusive: 0.562 µM [inhibitor, full curve, poor fit] |
| Cc1cccc(/C=C(\c2nc3ccccc3[nH]2)S(=O)(=O)c2ccccc2)c1 | inconclusive: 12.6 µM [inhibitor, partial curve, poor fit] |
| CC(C)(C)OC(=O)N1CCC(c2c(C(=O)N3CCCCC3)cnn2-c2ccc(Cl)cc2)CC1 | inconclusive: 1.58 µM [inhibitor, partial curve, poor fit] |
| COc1ccc(OC)c(-c2nnc3n(Cc4ccc(C)cc4)c(=O)c4ccccc4n23)c1 | inactive |
| CCOc1ccc(N2C(=O)CC(Sc3ncccn3)C2=O)cc1 (stereo unspecified) | inactive |
| Cc1ccc(C(C#N)c2ccc(C(=O)c3ccc(F)cc3)cc2)cc1 (stereo unspecified) | active: 10 µM |
| CC(CCC(=O)OC[C@H]1O[C@H](C#Cc2ccccc2)C=C[C@H]1Oc1ccc(C)cc1)=NOC[C@@H](O)[C@H]1O[C@@H]2OC(C)(C)O[C@H]2[C@@H]1O | inactive |
| Cc1ccc(C(=O)OCCc2sc[n+](Cc3ccccc3)c2C)cc1 | inactive |
| CCc1ccc(CN(C)C(=O)c2cc(S(=O)(=O)N3CCOCC3)ccc2N2CCCC2)cc1 | inconclusive: 10 µM [inhibitor, partial curve, poor fit] |
| CCOC(=O)c1c(C)c(C(=O)NCc2cccnc2)c(C)n1CC | inactive |
| [O-][n+]1onc2c1CCc1c-2nn(-c2ccccc2Cl)[n+]1[O-] | inconclusive: 14.6 µM [inhibitor, partial curve, poor fit] |
| COc1ccnc(N=CNOCc2ccc(C)cc2)c1C#N | inconclusive: 5.01 µM [inhibitor, full curve] |

| Structure (SMILES) | Potency |
| --- | --- |
| CC(=O)c1cccc(NC(=O)CSc2nc(C3CC3)nc3ccccc23)c1 | inconclusive: 10 µM [inhibitor, partial curve] |
| O=C(c1ccccc1)N1N=C(c2ccco2)CC1c1cccs1 (stereo unspecified) | inconclusive: 11.2 µM [inhibitor, single point] |
| O=C(O)COc1ccc(C=C2SC(=S)N(c3ccccc3)C2=O)cc1 | inconclusive: 11.2 µM [inhibitor, partial curve] |
| Cc1ccc2oc3c(c(=O)c2c1)C(c1ccc(F)cc1)N(Cc1ccc2c(c1)OCO2)C3=O (stereo unspecified) | inactive |
| CN(C)c1cccc(C(=O)NCCCn2ccc3ccccc32)c1 | inconclusive: 11.2 µM [inhibitor, partial curve, poor fit] |
| COc1ccccc1CCNC(=O)C(=O)NCC(c1ccc2c(c1)OCO2)N1CCOCC1 (stereo unspecified) | inactive |
| CC(=O)c1cccc(NC(=O)c2sc(-n3nc(C)c(Cc4ccc5c(c4)OCO5)c3C)nc2C)c1 | inactive |
| NNC(=O)Cn1c(COc2ccc(Cl)cc2)nc2ccccc21 | inactive |
| O=C1CS/C(=N/N=C\c2ccn[nH]2)N1 | inactive |
| CN(C1=NC(=O)C(CC(=O)Nc2ccc(Br)cc2)S1)c1ccc(O)cc1 (stereo unspecified) | inconclusive: 32.6 µM [inhibitor, single point] |
| Cc1c(-c2cccc(Cl)c2)nc2ccccc2c1C(=O)OCC(=O)Nc1ccc2c(c1)OCO2 | inconclusive: 12.6 µM [inhibitor, partial curve, poor fit] |
| CN(CC1CCCO1)S(=O)(=O)c1ccc(C(=O)Nc2ccc3c(c2)OCO3)cc1 (stereo unspecified) | inactive |
| COc1ccc(F)cc1S(=O)(=O)NCCc1csc2nc(-c3cccc(C)c3)nn12 | inactive |
| CCCCNS(=O)(=O)c1ccc(NC(=O)c2cccs2)cc1 | inconclusive: 10 µM [inhibitor, partial curve, poor fit] |
| NC(=O)c1ccc(N2CCN(c3ccc(O)cc3)CC2)c([N+](=O)[O-])c1 | inactive |
| CCOC(=O)c1c(S(=O)(=O)N2CCCC(C(=O)NCc3ccc(Cl)cc3)C2)c(C)n(C)c1C (stereo unspecified) | inactive |
| O=C(CN(C(=O)c1csnn1)c1cccc(Cl)c1)NCCc1ccccc1 | inconclusive: 20 µM [activator, single point] |
| O=C(O)CCC(=O)Nc1nnc(C(F)(F)F)s1 | inactive |
| Cc1ccc(-n2c(CC#N)n[nH]c2=S)c(C)c1 | inconclusive: 3.55 µM [inhibitor, single point] |
| COC(=O)c1ccc(OC(=O)c2cccnc2)cc1 | inactive |
| O=C(COC(=O)COc1ccccc1)NCCc1ccccc1 | inconclusive: 35.5 µM [activator, single point] |
| COc1ccccc1N1CCN(S(=O)(=O)c2cc(Br)cnc2N)CC1 | inconclusive: 31.6 µM [inhibitor, single point] |
| Cc1ccccc1NC(=O)C1CCN(c2cc(-c3ccccc3)nc3ncnn23)CC1 | inconclusive: 8.91 µM [inhibitor, partial curve, poor fit] |
| COc1ccccc1NS(=O)(=O)c1cc(NC(=O)CCC(=O)c2cccs2)ccc1Cl | inconclusive: 16.4 µM [inhibitor, single point] |

| Structure (SMILES) | Potency |
| --- | --- |
| COc1ccc(Cc2nc3ccccc3[nH]c2=O)cc1 | inconclusive: 28.2 µM [inhibitor, partial curve, poor fit] |
| COc1ccccc1/C=C1\CCCC2=C1Nc1nnnn1C2c1ccccc1OC (stereo unspecified) | inconclusive: 12.6 µM [inhibitor, partial curve, poor fit] |
| COc1ccccc1N(CC(=O)Nc1ccccc1C)S(C)(=O)=O | inactive |
| COc1ccc(NC(=O)CCn2cc(C)c3ccccc32)cc1 | inconclusive: 11.2 µM [activator, single point] |
| CCN(CC)S(=O)(=O)c1ccc(OC)c(NC(=O)c2ccc(OC)c([N+](=O)[O-])c2)c1 | inconclusive: 29.1 µM [inhibitor, single point] |
| CC(=O)Nc1nc2ccccc2n1Cc1ccccc1Cl | inactive |
| CC(=O)N1N=C(c2ccc3ccccc3c2)OC1(C)C | inconclusive: 8.2 µM [inhibitor, partial curve] |
| CC(C)(C)c1ccc(OCCNC(=O)Cc2ccc(F)cc2)cc1 | inconclusive: 13 µM [inhibitor, partial curve, poor fit] |
| Cc1cccnc1NC(=O)c1ccc2c(c1)OCO2 | inactive |
| CC(=O)NCCn1c(SCC(=O)NCC2CCCO2)nc2ccccc2c1=O (stereo unspecified) | inconclusive: 29.1 µM [inhibitor, single point] |
| COc1ccccc1C(=O)N1CCN(c2ccccn2)CC1 | inconclusive: 0.164 µM [inhibitor, full curve, poor fit] |
| O=C(c1cccc(S(=O)(=O)N2CCCCC2)c1)N(CCc1ccccc1)Cc1ccccc1 | inconclusive: 22.4 µM [inhibitor, single point] |
| Cc1cccc(OCC(=O)Nc2cc(C)on2)c1 | inactive |
| CCCCCC(=O)NNC(=O)c1c(O)c2ccccc2n(CC)c1=O | inconclusive: 22.4 µM [inhibitor, single point] |
| O=C(CN1C(=O)NC2(CCCCCCC2)C1=O)NC(=O)NCc1ccco1 | inactive |
| O=C(NCc1ccco1)c1ccc(COc2ccccc2Cl)cc1 | inactive |
| Cc1ccc(-n2c(=O)c3c(C)c(C(=O)N(C)C)sc3n(CC(=O)C(C)(C)C)c2=O)cc1C | inconclusive: 31.6 µM [activator, single point] |
| Cc1cccc(OC(C)C(=O)Nc2ccc(S(=O)(=O)N3CCCC3)cc2)c1 (stereo unspecified) | inconclusive: 8.91 µM [inhibitor, partial curve, poor fit] |
| C=CCn1c(Oc2ccccc2)nc2c1c(=O)n(C)c(=O)n2C | inactive |
| CCc1cccc(NC(=O)C2CCN(C(=O)c3cnn(-c4ccccc4)c3-n3cccc3)CC2)c1 | inactive |
| Clc1ccc(-c2nsc(N3CCOCC3)n2)c(Cl)c1 | inconclusive: 31.6 µM [inhibitor, single point] |
| Cc1ccc(NC(=O)CSc2nc3ccccc3c(=O)n2CCCN2CCCCC2)cc1C | active: 20.6 µM |
| COc1ccc(NC(=O)c2ccc(NC(=O)C(C)C)cc2)c([N+](=O)[O-])c1 | inconclusive: 20 µM [activator, single point] |

Ordered by number of heavy atoms (ascending): 16 of the compounds above

| Structure (SMILES) | Potency |
| --- | --- |
| O=C(O)CCC(=O)Nc1nnc(C(F)(F)F)s1 | inactive |
| Cc1cccnc1NC(=O)c1ccc2c(c1)OCO2 | inactive |
| COc1ccnc(N=CNOCc2ccc(C)cc2)c1C#N | inconclusive: 5.01 µM [inhibitor, full curve] |
| COc1ccc(C(=O)N/N=C/c2sc3ccccc3c2O)cc1 | inconclusive: 23.1 µM [inhibitor, single point] |
| CN(C)c1cccc(C(=O)NCCCn2ccc3ccccc32)c1 | inconclusive: 11.2 µM [inhibitor, partial curve, poor fit] |
| COc1ccccc1N1CCN(S(=O)(=O)c2cc(Br)cnc2N)CC1 | inconclusive: 31.6 µM [inhibitor, single point] |
| COc1ccc(NC(=O)c2ccc(NC(=O)C(C)C)cc2)c([N+](=O)[O-])c1 | inconclusive: 20 µM [activator, single point] |
| CC(=O)c1cccc(NC(=O)CSc2nc(C3CC3)nc3ccccc23)c1 | inconclusive: 10 µM [inhibitor, partial curve] |
| COC(=O)c1ccc(COc2ccc(CNCc3ccc(Cl)cc3)cc2)cc1 | inactive |
| COc1ccc(F)cc1S(=O)(=O)NCCc1csc2nc(-c3cccc(C)c3)nn12 | inactive |
| COc1ccc(NS(=O)(=O)c2ccc(OC)c(N(C)S(=O)(=O)c3ccc(Cl)cc3)c2)cc1 | inconclusive: 29.1 µM [inhibitor, single point] |
| CCc1ccc(CN(C)C(=O)c2cc(S(=O)(=O)N3CCOCC3)ccc2N2CCCC2)cc1 | inconclusive: 10 µM [inhibitor, partial curve, poor fit] |
| Cc1c(-c2cccc(Cl)c2)nc2ccccc2c1C(=O)OCC(=O)Nc1ccc2c(c1)OCO2 | inconclusive: 12.6 µM [inhibitor, partial curve, poor fit] |
| CCc1cccc(NC(=O)C2CCN(C(=O)c3cnn(-c4ccccc4)c3-n3cccc3)CC2)c1 | inactive |
| COc1ccccc1CNC(=O)CCC1N=C2c3ccccc3N=C(SCc3cccc(Cl)c3)N2C1=O (stereo unspecified) | inconclusive: 3.55 µM [inhibitor, single point] |
| CC(CCC(=O)OC[C@H]1O[C@H](C#Cc2ccccc2)C=C[C@H]1Oc1ccc(C)cc1)=NOC[C@@H](O)[C@H]1O[C@@H]2OC(C)(C)O[C@H]2[C@@H]1O | inactive |
